{
  "source": "patent US20070206845A1",
  "about": "“Granularity analysis in cellular phenotypes” (Cytokinetics, Inc., priority 2006, published 2007)",
  "test_system": "hepatocytes",
  "data": [
    {"compound": "CCCCc1oc2ccccc2c1C(=O)c1cc(I)c(OCCN(CC)CC)c(I)c1", "note": "[Amiodarone]", "values": [
      {"measurement": "number of granules per cell (averaged over a population of cells) versus drug concentration", "setting": "FIG. 6 dose response curves", "value": "most significant response"},
      {"measurement": "total area of the granules within a population of cells (on a per cell basis) versus drug concentration", "setting": "FIG. 7 dose response curves", "value": "the same response is visible"}
    ]}
  ]
}
